The text below walks through data of PubChem BioAssay AID2685 (National Center for Advancing Translational Sciences (NCATS), 2010).

The assay is described as follows: qHTS Assay for Lipid Storage Modulators in Drosophila S3 Cells.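 On cell number change: cells counted by Cell Tracker Red CMTPX staining in the red channel.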 Particulars: BODIPY lipid droplet fluorescence, 18-24 h; for cell number change: measured here: cell count max response, cells fed with added oleic acid. In short, it runs like this:
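Drosophila S3 cells loaded with oleic acid (400 uM, as added) and compounds at several concentrations; lipid droplets imaged by 488-nm laser-scanning cytometry, 500–530 nm intensity and object ratio to cell channel. Percent activity normalized to 20 uM Triacsin C.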
In general terms: qHTS replaces the single test concentration by a dilution series.

Setting [1] is: measured here: cell number channel AC50, cells fed with added oleic acid.
Setting [2] is: measured here: lipid fluorescence (Fed channel) AC50, cells fed with added oleic acid.

The structures appear in SMILES notation. The list shows a part of the results. Shown are side measurements of this screen, not its main read-out; they come without a call. The list favours compounds with an active or inconclusive main result. The note in brackets gives the kind of curve behind each potency; many fits are weak.

The AC50 is the concentration giving half of the maximal activity seen. Higher therefore signals activity only at high concentration.

`COc1cc(OC)c(OC)cc1CCC(C)NCCC(c1ccccc1)c1ccccc1` (configuration not stated): the cell number change was -55.1%. Under setting [1], the AC50 is 23.1 µM [falling, partial curve, poor fit]. Moreover, the AC50 under setting [2] is 14.6 µM [falling, partial curve].

Consider `Cc1ccc(-c2[nH]ncc2C(=O)c2ccccc2C)c(O)c1`, for which the cell number change is -13.5%. Further, the AC50 under setting [1] was 0.058 µM [rising, full curve, poor fit]. For the same compound, the half-maximal activity concentration (AC50) under setting [2] is 6.51 µM [rising, single point].

Turning to `O=C(c1nc2ccccn2c1CN1CCN(c2ccccc2O)CC1)N1CCCC1`, the cell number change is 1.13%. Also, the AC50 under setting [2] is 2.91 µM [rising, single point].

Consider `O=C(C1CCCN(S(=O)(=O)c2cccc3nonc23)C1)N1CCN(c2ccccc2Cl)CC1` (configuration not stated), for which the cell number change was -6.58%. In addition, the concentration at half-maximal activity (AC50) under setting [2] is 1.46 µM [rising, partial curve].

Consider `CCOC(=O)c1ccc(Cl)c(NC(=O)c2ccc(-c3ccccc3)cc2)c1`, for which the cell number change is -17.7%. Besides, the concentration at half-maximal activity (AC50) under setting [2] is 29.1 µM [falling, single point].

Regarding `O=C1CCCN1CCCNc1ccc2nnc(CCC(=O)N3CCN(c4ccccc4)CC3)n2n1`, the cell number change was 11.3%.

As to `Cc1ccc(Nc2cc(C)nc(N3CCOCC3)n2)cc1`, the cell number change was -3.65%.

In the case of `CCC(=O)N1CCN(c2ccccc2NC(=O)COc2cccc(C)c2)CC1`, the cell number change is -37.4%. Besides, under setting [1], the AC50 was 20.6 µM [falling, partial curve, poor fit]. The AC50 under setting [2] is 0.92 µM [rising, full curve, poor fit].

With `O=C(CSC1=NS(=O)(=O)c2ccccc2N1)Nc1cccc(F)c1`, the cell number change is -16.6%. The AC50 under setting [1] was 0.00731 µM [falling, full curve, poor fit]. The half-maximal activity concentration (AC50) under setting [2] was 3.26 µM [falling, full curve].

For `COC(=O)c1ccccc1NC(=O)CSc1nnnn1-c1ccc(C)cc1C`, the AC50 is, setting by setting: under setting [1], 3.26 µM [rising, partial curve]; under setting [2], 20.6 µM [rising, partial curve].

Take `CN1/C(=C\C=C(/C#N)C(=O)Nc2ccc(Cl)cc2)C(C)(C)c2ccccc21`: the AC50 under setting [1] was 0.0651 µM [rising, full curve, poor fit].

`O=C(Nc1ccc(Cl)cc1)c1cc(S(=O)(=O)N2CCOCC2)cs1`: the cell number change was -13.1%.

As for `O=C(c1ccco1)N1CCCN(Cc2cn[nH]c2-c2ccc(-c3ccccc3)cc2)CC1`, the cell number change was -46.6%. For the same compound, the AC50 under setting [1] was 29.1 µM [falling, single point].

As for `CC(=O)c1ccc(NC(=O)C(NC(=O)c2ccccc2)=C(C)C)cc1`, the cell number change worked out at 23.1%. The AC50 under setting [2] is 29.1 µM [rising, single point].

With `COc1ccc(CNC(=O)Cc2ccc(OC)c(S(=O)(=O)N3CCOCC3)c2)cc1`, the cell number change was 30.4%. Also, the AC50 under setting [1] was 0.517 µM [rising, full curve, poor fit].

As for `O=c1nc(-c2ccccc2)n(-c2ccccc2)[nH]1`, the cell number change came to 2.46%. For the same compound, under setting [1], the AC50 was 2.06 µM [falling, partial curve, poor fit]. Besides, under setting [2], the AC50 is 0.92 µM [falling, partial curve, poor fit].

Regarding `COC(=O)c1cccc(C(=O)Nc2cnc3ccccc3c2)n1`, the cell number change is 3.48%. Besides, the half-maximal activity concentration (AC50) under setting [2] is 0.291 µM [rising, full curve].

With `COc1ccc(C(=O)C2CCN(C(=O)Nc3ccccc3C)CC2)cc1`, the cell number change came out at 13.4%. The AC50 under setting [2] was 29.1 µM [rising, single point].

For the compound `C/C(=N\NC(=O)c1cc(O)cc(O)c1)c1ccc(NC(=O)Cc2ccccc2)cc1`, the AC50 under setting [2] was 0.651 µM [rising, full curve, poor fit].

For `CCn1c(CNc2ccc(F)cc2)nnc1SCC(=O)N1CCCc2ccccc21`, the cell number change is -13.8%. In addition, the AC50 under setting [2] is 6.51 µM [falling, single point].

Consider `CCOC(=O)NC(=O)COC(=O)CNC(=O)c1cccc(OC)c1`, for which the cell number change was 19.1%. Besides, the AC50 under setting [2] was 2.59 µM [falling, partial curve, poor fit].

For the compound `Cc1ccc(C)c2[nH]c(=O)c(CCNC(=O)C(C)C)cc12`, under setting [2], the half-maximal activity concentration (AC50) was 0.13 µM [rising, full curve, poor fit].

As for `CN(CCCCCCN(C)Cc1ccccc1O)Cc1ccccc1O`, the cell number change was -11.1%. Besides, the concentration at half-maximal activity (AC50) under setting [2] was 0.00461 µM [falling, full curve, poor fit].

`CCOC(=O)C1(Cc2ccccc2C)CCCN(C(=O)CCc2cccnc2)C1` (configuration not stated): the cell number change is 9.94%.

`Cc1ccc(/C=N/NC(=S)NC(C)C)o1`: under setting [2], the AC50 was 0.58 µM [falling, single point].

In the case of `O=C1c2ccccc2S(=O)(=O)N1CC1CC(c2ccccc2Cl)=NO1` (configuration not stated), the AC50 under setting [2] is 29.1 µM [rising, single point].

For the compound `OC(COCc1ccc2c(c1)OCO2)CN1CCN(Cc2ccccc2)CC1` (configuration not stated), the cell number change was found to be 72%. Besides, under setting [1], the concentration at half-maximal activity (AC50) is 23.1 µM [rising, single point].

Take `Cc1cc(C)nc(NS(=O)(=O)c2ccc(NC(=O)c3cc4c(=O)n5cccc(C)c5nc4n3C)cc2)n1`: the cell number change is 2.67%.

With `Nc1n[nH]c(N)c1N=Nc1ccc2c(c1)OCO2`, the cell number change is -2.02%. Further, the concentration at half-maximal activity (AC50) under setting [2] is 0.00411 µM [falling, full curve, poor fit].

For the compound `O=C(CSc1ncn[nH]1)NCc1ccccc1Cl`, the cell number change is -8.56%.

On to `O=C(/C=C/c1ccccc1O)c1ccco1`, for which the cell number change is -10.8%. Also, the AC50 under setting [2] was 6.51 µM [falling, single point].

As for `Cc1ccc(/C=N/NC(=O)c2c(C)nc3ccc(Br)cn23)cc1`, the cell number change amounted to 8.03%. Besides, under setting [2], the AC50 was 29.1 µM [rising, single point].

On to `COc1ccc(S(=O)(=O)N2CCOCC2)cc1NC(=O)CNC(=O)c1cccs1`, for which the cell number change worked out at 32%. Further, under setting [1], the half-maximal activity concentration (AC50) was 32.6 µM [rising, single point]. Besides, under setting [2], the AC50 was 0.461 µM [rising, full curve].

In the case of `COc1ccc([N+](=O)[O-])cc1NC(=O)C(C)OC(=O)c1cccnc1Cl` (configuration not stated), the concentration at half-maximal activity (AC50) under setting [2] was 0.00411 µM [rising, full curve, poor fit].

For the compound `Cn1cc(P(=S)(N2CCOCC2)N2CCOCC2)cc1P(=S)(N1CCOCC1)N1CCOCC1`, the cell number change is 10.1%.

Turning to `c1csc(CNCCCN2CCOCC2)c1`, the cell number change is -86.2%. Further, under setting [1], the AC50 is 29.1 µM [falling, single point].

Take `N=c1n(CC(=O)c2cccs2)c2ccccc2n1Cc1ccccc1`: the cell number change is -18.2%. The AC50 under setting [2] was 32.6 µM [falling, single point].

With `COc1ccc(C(=O)Nc2ccncc2)c(OC)c1`, the cell number change is -6.45%. Further, the AC50 under setting [2] is 9.2 µM [falling, partial curve].

Turning to `COC(=O)Cn1ncc(N2CC(C)OC(C)C2)c(Cl)c1=O` (configuration not stated), the cell number change came out at 3.97%.

As for `CCOC(=O)C1CCN(C(=O)Cc2c(C(=O)O)n(C)c3ccccc23)CC1`, the cell number change is 1.97%.

On to `CCc1ccc(OC(=O)Nc2ccccc2)cc1`, for which the cell number change came to 1.64%. Besides, the AC50 under setting [2] is 2.91 µM [rising, partial curve, poor fit].

With `CN(Cc1ccccc1)C(=O)c1[nH]cnc1C(=O)Nc1ccccc1`, the cell number change was -35.4%. Besides, the concentration at half-maximal activity (AC50) under setting [1] is 9.2 µM [falling, single point].

Take `Cc1nn(CC(=O)NC2CCS(=O)(=O)C2)c(C)c1S(=O)(=O)N(C)C` (configuration not stated): the cell number change is -0.722%. In addition, the AC50 under setting [2] is 29.1 µM [rising, single point].

Consider `O=C1/C(=C/c2ccc([N+](=O)[O-])cc2)C=C(c2ccccc2)N1c1ccc(O)cc1`, for which the cell number change stood at 2.34%.

Consider `Cc1ccccc1C(=O)NC1CCN(Cc2nnnn2CCc2ccccc2)CC1`, for which the cell number change was 21%. The concentration at half-maximal activity (AC50) under setting [2] is 18.4 µM [rising, single point].

For the compound `Cc1cnc(C(=O)Nc2cc(F)ccc2C)cn1`, the cell number change is 16.2%. In addition, under setting [2], the AC50 was 16.4 µM [rising, partial curve, poor fit].

Take `CC(C)Oc1cccc(C(=O)Nc2ccc(CN3CCOCC3)cc2)c1`: the AC50 under setting [1] is 0.411 µM [rising, partial curve].

As for `O=C1N(Cc2ccccc2)CCCC12CCCN(Cc1ccccc1)C2=O`, the cell number change was 14%. Also, the AC50 under setting [2] is 6.51 µM [rising, partial curve].

As to `COC(=O)CCS(=O)(=O)c1ccc(NC(C)=O)cc1`, the cell number change is -70.9%. Moreover, under setting [1], the AC50 is 16.4 µM [falling, single point].

With `COC(=O)C(Cc1c[nH]c2ccccc12)N1CCS(=O)(=O)CC1` (configuration not stated), the cell number change was determined as 12.3%. In addition, the AC50 under setting [1] was 2.31 µM [rising, partial curve, poor fit]. Also, the half-maximal activity concentration (AC50) under setting [2] was 8.2 µM [rising, partial curve, poor fit].

Turning to `O=C(Nc1cc(S(=O)(=O)N2CCCCC2)ccc1N1CCOCC1)c1cc(=O)[nH]c2ccccc12`, the cell number change is -14.3%. The concentration at half-maximal activity (AC50) under setting [2] is 8.2 µM [falling, partial curve].

In the case of `COc1cc(C(=O)NCCCNc2ccc([N+](=O)[O-])cc2)cc(OC)c1OC`, the cell number change was found to be 20.3%. Further, the concentration at half-maximal activity (AC50) under setting [2] was 0.184 µM [rising, full curve, poor fit].

In the case of `Cc1cc(C(=O)NC2CCCCC2)c(C)o1`, the cell number change was -15.7%.

Consider `CC(C)Cc1csc(NC(=O)c2ccccc2Cl)c1C(=O)O`, for which the cell number change is -35.3%. In addition, the half-maximal activity concentration (AC50) under setting [1] was 32.6 µM [falling, single point]. For the same compound, the AC50 under setting [2] was 29.1 µM [falling, single point].

On to `COc1cc(C(=O)OCC(=O)Nc2cc(C)on2)ccc1OCc1ccccc1Cl`, for which the cell number change was -43%. For the same compound, the concentration at half-maximal activity (AC50) under setting [1] was 29.1 µM [falling, single point]. The half-maximal activity concentration (AC50) under setting [2] is 0.00517 µM [rising, full curve, poor fit].

On to `COc1ccc(Oc2ccc(S(=O)(=O)N3CCCCC3)cc2S(=O)(=O)N2CCCCC2)cc1`, for which the cell number change stood at 28.9%. Moreover, the concentration at half-maximal activity (AC50) under setting [2] was 8.2 µM [rising, partial curve, poor fit].

Consider `CCOc1ccc2[nH]c(C)c(CN3CCN(CC)CC3)c(=O)c2c1`, for which the cell number change was -57%. In addition, the AC50 under setting [1] was 0.326 µM [falling, full curve, poor fit]. Under setting [2], the concentration at half-maximal activity (AC50) was 0.291 µM [falling, full curve].

Consider `CCOC(=O)c1c(C)[nH]c(C(=O)OCC(=O)N2CC(C)OC(C)C2)c1C` (configuration not stated), for which the cell number change is 15.3%.

Regarding `COc1ccc(C(=O)Nc2ccc(C(=O)O)cc2NC(=O)c2ccc(OC)cc2)cc1`, the cell number change was 3.9%. Moreover, under setting [2], the AC50 is 4.61 µM [rising, single point].

For the compound `CNC(=O)C12CC3CC(C1)CC(c1ccc(C)cc1)(C3)C2`, the cell number change is -1.17%.

As to `CC(CCc1ccccc1)NC(=O)CSc1cccc[n+]1[O-]` (configuration not stated), the cell number change is -12.7%. The AC50 under setting [2] is 2.59 µM [falling, single point].
